± gives the standard deviation of the averaged measurements. Only a part is listed here, and it is no random draw.
Compound: Nc1ncnc2c1ncn2[C@@H]1O[C@H](COP(=O)(O)OP(=O)(O)OP(=O)(O)O)[C@@H](O)[C@H]1O [adenosine triphosphate]
Assay: NP40-soluble protein abundance relative to vehicle (solubility fold change) (ratio); higher = more soluble protein in presence of ATP
Summary of the method: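 Data come from three independent experiments in which Dounce-homogenised Jurkat crude lysate was treated at eight concentrations from 0.1 to 10 mM. Treatment ran 10 min at room temperature and then 3 min at 37 °C, after which 0.8% NP40 and benzonase were added for 60 min at 4 °C before ultracentrifugation. The supernatant underwent TMT labelling and LC-MS/MS, and vsn-normalised intensities were expressed as fold change against the detergent-processed vehicle in each replicate.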

Protein sequences, listed by entry. Tags and fused reporters are not part of them. Lines headed by an entry give the natural chain unless they say otherwise; changes in a name come on top.
UniProt P55854, whole entry: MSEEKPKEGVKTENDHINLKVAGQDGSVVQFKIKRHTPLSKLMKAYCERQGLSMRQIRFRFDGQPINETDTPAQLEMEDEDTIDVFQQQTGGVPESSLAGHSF
UniProt Q8IVH2: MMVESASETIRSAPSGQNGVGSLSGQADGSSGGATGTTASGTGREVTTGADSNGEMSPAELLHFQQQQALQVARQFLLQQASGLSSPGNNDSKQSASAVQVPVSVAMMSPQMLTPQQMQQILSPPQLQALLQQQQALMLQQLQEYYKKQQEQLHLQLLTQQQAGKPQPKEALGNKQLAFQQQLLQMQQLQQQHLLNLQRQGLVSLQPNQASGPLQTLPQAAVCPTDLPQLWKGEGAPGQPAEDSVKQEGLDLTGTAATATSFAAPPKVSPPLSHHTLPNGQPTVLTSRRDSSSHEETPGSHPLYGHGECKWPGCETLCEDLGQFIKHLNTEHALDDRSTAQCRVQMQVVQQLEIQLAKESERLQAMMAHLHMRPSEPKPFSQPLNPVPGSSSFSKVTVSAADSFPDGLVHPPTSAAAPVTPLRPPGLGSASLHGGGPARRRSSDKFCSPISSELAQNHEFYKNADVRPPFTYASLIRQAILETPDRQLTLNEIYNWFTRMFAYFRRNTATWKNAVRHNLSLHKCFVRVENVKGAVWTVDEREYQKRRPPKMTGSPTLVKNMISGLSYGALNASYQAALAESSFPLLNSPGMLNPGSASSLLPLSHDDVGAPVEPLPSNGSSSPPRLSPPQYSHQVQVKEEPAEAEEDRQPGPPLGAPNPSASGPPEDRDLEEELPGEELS
UniProt Q9NYZ1: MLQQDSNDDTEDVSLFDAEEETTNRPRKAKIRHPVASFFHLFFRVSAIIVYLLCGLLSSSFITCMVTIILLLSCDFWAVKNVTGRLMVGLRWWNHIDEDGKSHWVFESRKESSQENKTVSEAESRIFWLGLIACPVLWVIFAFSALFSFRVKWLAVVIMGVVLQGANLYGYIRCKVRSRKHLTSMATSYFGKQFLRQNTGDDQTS
UniProt P15336: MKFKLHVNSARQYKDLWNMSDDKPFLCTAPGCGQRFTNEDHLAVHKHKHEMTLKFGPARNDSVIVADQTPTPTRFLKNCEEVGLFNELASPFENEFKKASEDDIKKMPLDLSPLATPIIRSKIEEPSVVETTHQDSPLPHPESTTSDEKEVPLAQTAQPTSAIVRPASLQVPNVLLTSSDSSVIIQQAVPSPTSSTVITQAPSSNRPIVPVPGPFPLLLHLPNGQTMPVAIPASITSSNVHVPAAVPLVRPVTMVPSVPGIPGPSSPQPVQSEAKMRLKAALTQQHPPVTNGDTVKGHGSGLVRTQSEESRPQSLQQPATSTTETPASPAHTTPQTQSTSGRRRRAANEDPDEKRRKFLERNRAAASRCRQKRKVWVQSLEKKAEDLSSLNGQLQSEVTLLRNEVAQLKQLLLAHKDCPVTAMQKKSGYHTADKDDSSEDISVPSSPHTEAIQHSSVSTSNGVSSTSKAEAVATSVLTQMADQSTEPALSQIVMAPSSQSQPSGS
UniProt P43307: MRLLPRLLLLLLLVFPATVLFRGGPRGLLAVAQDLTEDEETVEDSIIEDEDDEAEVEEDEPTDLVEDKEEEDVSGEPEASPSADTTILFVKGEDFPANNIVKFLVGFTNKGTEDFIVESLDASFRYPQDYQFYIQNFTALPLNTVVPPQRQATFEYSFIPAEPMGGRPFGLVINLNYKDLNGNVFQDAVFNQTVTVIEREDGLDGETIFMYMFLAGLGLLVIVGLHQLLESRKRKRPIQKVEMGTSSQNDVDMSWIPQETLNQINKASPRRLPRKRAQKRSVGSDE
UniProt O00189: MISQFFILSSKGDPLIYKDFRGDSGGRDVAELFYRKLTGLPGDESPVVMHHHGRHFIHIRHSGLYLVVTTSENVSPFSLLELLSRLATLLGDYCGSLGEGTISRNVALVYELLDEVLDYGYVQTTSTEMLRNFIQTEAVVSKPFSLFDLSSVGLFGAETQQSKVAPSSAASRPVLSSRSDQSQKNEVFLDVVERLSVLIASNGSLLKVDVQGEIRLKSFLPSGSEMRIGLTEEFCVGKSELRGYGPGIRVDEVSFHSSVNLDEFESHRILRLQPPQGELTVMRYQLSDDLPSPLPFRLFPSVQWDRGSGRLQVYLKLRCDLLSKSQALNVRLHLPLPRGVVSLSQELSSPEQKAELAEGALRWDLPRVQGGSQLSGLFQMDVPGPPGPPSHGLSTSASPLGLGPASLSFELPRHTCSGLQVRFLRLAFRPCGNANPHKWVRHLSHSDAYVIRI
UniProt P26599: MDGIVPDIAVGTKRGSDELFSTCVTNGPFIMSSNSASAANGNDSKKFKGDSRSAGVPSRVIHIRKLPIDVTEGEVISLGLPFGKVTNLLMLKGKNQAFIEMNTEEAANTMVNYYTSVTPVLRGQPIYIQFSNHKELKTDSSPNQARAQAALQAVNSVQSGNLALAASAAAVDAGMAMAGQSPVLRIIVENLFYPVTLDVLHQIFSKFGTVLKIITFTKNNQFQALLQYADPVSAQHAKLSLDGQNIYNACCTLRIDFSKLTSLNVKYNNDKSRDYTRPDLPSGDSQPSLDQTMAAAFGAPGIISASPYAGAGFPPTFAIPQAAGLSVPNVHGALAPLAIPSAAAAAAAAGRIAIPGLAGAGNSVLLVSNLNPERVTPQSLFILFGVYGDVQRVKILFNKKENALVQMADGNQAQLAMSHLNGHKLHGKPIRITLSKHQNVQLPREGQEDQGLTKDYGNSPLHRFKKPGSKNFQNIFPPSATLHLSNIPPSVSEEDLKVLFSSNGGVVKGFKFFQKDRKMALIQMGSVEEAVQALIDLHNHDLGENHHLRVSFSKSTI
UniProt Q9Y6K9, whole entry: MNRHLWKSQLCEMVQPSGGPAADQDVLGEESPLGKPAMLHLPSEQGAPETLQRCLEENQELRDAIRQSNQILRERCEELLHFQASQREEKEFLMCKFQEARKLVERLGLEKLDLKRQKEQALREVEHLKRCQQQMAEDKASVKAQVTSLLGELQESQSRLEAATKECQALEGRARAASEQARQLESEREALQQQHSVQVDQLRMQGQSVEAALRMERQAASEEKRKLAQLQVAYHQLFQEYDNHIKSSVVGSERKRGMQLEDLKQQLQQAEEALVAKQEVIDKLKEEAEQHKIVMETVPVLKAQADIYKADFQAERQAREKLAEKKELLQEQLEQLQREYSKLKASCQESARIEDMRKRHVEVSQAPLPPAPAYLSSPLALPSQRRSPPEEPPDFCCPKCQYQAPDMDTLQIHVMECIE
UniProt O60573: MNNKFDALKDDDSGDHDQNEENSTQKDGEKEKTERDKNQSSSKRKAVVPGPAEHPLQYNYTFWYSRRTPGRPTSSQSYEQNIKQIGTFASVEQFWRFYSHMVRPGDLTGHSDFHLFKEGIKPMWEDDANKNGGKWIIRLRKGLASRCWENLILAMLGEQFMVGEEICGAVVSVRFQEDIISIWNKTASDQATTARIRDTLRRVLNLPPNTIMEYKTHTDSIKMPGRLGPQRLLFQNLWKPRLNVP
UniProt Q99798: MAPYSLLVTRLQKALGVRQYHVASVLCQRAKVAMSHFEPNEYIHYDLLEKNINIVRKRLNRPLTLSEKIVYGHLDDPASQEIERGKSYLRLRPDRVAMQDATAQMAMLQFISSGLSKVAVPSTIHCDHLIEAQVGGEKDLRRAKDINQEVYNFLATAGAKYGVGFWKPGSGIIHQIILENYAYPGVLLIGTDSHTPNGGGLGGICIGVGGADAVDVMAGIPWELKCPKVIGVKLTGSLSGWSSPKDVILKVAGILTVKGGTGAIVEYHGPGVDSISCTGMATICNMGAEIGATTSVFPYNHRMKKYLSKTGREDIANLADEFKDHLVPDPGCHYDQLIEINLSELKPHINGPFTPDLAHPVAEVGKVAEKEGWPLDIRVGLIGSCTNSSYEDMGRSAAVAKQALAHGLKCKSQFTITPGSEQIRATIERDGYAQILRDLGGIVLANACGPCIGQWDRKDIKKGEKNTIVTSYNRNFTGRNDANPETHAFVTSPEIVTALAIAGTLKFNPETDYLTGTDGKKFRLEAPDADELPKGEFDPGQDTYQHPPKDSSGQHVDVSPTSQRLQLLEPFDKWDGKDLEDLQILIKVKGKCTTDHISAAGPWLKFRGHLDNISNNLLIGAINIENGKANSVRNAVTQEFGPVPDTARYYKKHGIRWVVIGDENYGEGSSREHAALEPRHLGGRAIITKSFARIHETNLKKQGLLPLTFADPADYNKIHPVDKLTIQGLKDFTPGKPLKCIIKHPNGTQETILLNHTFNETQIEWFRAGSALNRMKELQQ
UniProt O95861: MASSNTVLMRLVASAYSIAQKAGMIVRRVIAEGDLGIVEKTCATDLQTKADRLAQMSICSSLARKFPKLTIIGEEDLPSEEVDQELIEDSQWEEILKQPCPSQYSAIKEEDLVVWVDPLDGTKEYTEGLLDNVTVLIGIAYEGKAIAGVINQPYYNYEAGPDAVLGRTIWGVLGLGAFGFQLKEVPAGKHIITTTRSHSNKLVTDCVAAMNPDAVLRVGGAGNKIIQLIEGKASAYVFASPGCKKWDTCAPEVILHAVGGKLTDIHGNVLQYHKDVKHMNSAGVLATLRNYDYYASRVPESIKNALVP
UniProt Q9BT40: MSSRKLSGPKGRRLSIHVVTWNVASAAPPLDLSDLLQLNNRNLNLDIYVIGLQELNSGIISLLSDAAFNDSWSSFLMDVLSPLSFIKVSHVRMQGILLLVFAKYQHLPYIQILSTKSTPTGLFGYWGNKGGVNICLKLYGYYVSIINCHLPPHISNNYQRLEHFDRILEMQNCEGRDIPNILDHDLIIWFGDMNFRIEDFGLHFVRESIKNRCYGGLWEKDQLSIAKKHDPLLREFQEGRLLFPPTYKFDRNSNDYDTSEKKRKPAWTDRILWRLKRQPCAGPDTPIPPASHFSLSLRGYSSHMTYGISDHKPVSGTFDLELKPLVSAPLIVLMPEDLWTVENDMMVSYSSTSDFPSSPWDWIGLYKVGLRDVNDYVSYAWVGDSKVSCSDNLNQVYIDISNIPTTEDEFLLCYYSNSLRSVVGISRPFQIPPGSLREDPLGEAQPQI
UniProt A6NK58: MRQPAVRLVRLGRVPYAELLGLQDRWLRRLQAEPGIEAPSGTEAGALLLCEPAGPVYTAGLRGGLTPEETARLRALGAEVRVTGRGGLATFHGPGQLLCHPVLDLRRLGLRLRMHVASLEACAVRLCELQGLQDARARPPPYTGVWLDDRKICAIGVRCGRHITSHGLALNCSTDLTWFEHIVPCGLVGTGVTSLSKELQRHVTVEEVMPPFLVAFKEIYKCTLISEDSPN
UniProt P24864, whole entry: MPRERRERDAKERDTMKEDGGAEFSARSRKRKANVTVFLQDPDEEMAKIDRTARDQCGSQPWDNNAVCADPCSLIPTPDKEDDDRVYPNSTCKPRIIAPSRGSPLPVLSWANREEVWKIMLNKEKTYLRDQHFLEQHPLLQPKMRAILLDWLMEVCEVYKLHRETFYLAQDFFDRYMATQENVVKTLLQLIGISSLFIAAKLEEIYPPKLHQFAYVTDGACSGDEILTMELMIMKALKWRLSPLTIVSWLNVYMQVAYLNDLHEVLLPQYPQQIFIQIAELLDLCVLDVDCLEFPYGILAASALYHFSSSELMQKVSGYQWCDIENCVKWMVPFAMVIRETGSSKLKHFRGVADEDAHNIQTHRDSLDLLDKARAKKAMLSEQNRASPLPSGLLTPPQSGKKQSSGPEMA
UniProt Q9HCP0: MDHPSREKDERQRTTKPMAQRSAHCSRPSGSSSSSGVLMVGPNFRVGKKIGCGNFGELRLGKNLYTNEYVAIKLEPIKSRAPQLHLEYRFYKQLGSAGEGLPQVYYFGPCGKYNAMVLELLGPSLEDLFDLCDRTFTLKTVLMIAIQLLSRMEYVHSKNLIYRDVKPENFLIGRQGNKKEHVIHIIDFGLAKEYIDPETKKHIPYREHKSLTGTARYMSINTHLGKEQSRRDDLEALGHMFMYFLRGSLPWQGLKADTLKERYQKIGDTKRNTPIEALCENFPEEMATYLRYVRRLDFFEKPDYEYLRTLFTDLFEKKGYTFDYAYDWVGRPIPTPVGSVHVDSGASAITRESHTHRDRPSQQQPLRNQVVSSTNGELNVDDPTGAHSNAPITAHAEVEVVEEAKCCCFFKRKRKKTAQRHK
UniProt Q9NVN3: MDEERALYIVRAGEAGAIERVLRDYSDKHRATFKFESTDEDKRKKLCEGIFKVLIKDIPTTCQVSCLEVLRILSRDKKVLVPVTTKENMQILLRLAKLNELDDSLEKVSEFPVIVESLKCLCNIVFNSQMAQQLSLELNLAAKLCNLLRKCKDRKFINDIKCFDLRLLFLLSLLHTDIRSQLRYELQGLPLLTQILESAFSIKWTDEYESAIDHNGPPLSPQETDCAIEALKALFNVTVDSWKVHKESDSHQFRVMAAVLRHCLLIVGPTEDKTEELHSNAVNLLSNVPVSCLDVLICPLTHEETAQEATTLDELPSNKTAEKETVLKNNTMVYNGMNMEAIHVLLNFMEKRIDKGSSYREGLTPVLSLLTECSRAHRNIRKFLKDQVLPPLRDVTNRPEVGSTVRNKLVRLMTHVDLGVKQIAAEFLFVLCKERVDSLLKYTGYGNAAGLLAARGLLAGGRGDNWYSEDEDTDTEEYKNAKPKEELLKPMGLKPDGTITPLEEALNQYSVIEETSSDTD

Target	NP40-soluble protein abundance (concentration: 1mM)	NP40-soluble protein abundance (concentration: 2mM)	NP40-soluble protein abundance (concentration: 4mM)	NP40-soluble protein abundance (concentration: 6mM)	NP40-soluble protein abundance (concentration: 8mM)	NP40-soluble protein abundance (concentration: 10mM)
A8MU27 and related entries (UniProt P55854)	0.998 ± 0.14	0.959 ± 0.098	0.942 ± 0.077	1.04 ± 0.12	0.913 ± 0.084	0.863 ± 0.24
C9JIZ6 and related entries (UniProt P07602)	0.914 ± 0.092	0.917 ± 0.052	0.896 ± 0.049	0.96 ± 0.083	0.892 ± 0.014	0.816 ± 0.089
B7ZBM3 and related entries (UniProt Q8IVH2)	0.995 ± 0.085	1.02 ± 0.065	0.99 ± 0.065	1.03 ± 0.15	0.979 ± 0.098	0.989 ± 0.065
C9JYS5 and related entries (UniProt J3QL63+J3QL47+Q9NYZ1+C9JYS5)	0.993 ± 0.14	0.944 ± 0.14	0.882 ± 0.092	0.898 ± 0.059	0.998 ± 0.071	0.914 ± 0.074
C4B7M2 and related entries (UniProt Q96JI7)	1.01 ± 0.14	0.979 ± 0.13	1.03 ± 0.15	0.907 ± 0.089	1.06 ± 0.084	1 ± 0.23
B8ZZU6 and related entries (UniProt P15336)	0.905 ± 0.055	0.909 ± 0.062	0.983 ± 0.14	1.02 ± 0.17	0.892 ± 0.055	0.922 ± 0.1
UniProt A5PLN9 and related entries	0.964 ± 0.089	0.975 ± 0.056	0.986 ± 0.023	0.901 ± 0.049	0.984 ± 0.056	0.965 ± 0.029
C9IZQ1 and related entries (UniProt P43307)	0.975 ± 0.091	1.01 ± 0.085	1.01 ± 0.045	1.01 ± 0.085	0.965 ± 0.02	0.949 ± 0.075
C9IZL5 and related entries (UniProt O00189)	1.07 ± 0.11	1.03 ± 0.025	1.02 ± 0.075	1.01 ± 0.16	1.02 ± 0.015	1.02 ± 0.0043
UniProt A6QL63 and related entries	0.972 ± 0.081	0.992 ± 0.033	0.994 ± 0.057	0.992 ± 0.034	1.03 ± 0.024	0.979 ± 0.044
A0A0U1RRM4|A6NLN1 and related entries (UniProt P26599)	0.882 ± 0.2	1.02 ± 0.018	0.975 ± 0.056	0.959 ± 0.12	0.949 ± 0.029	0.953 ± 0.067
C9J2V2 and related entries (UniProt Q9Y6K9)	0.982 ± 0.091	0.949 ± 0.046	0.961 ± 0.057	0.971 ± 0.058	0.956 ± 0.04	0.914 ± 0.057
C9J6B1 and related entries (UniProt P11234)	1.01 ± 0.058	0.982 ± 0.018	0.992 ± 0.073	1.02 ± 0.067	0.947 ± 0.066	0.985 ± 0.021
C9JRZ6 and related entries (UniProt Q9NX63)	0.994 ± 0.061	0.94 ± 0.038	0.901 ± 0.063	0.957 ± 0.14	0.908 ± 0.07	0.893 ± 0.029
A0A0U1RR27|Q7Z401 and related entries (UniProt Q7Z401)	0.968 ± 0.073	0.949 ± 0.057	0.951 ± 0.055	1 ± 0.11	0.939 ± 0.031	0.931 ± 0.043
B8ZZ50 and related entries (UniProt O60573)	1.04 ± 0.075	1.07 ± 0.071	1.1 ± 0.068	1.15 ± 0.0016	1.16 ± 0.058	1.13 ± 0.082
B7Z2Y2 and related entries (UniProt Q14746)	1.01 ± 0.065	0.976 ± 0.072	0.982 ± 0.094	0.989 ± 0.096	0.986 ± 0.082	0.957 ± 0.041
ILVBL (UniProt A1L0T0)	0.944 ± 0.019	0.974 ± 0.044	0.948 ± 0.019	0.911 ± 0.074	0.96 ± 0.031	0.988 ± 0.045
A2A274 and related entries (UniProt Q99798)	1.02 ± 0.031	1.02 ± 0.036	0.99 ± 0.029	0.992 ± 0.066	1 ± 0.052	0.978 ± 0.041
A6NF51 and related entries (UniProt O95861)	0.925 ± 0.043	0.948 ± 0.0097	0.9148 ± 0.0054	0.887 ± 0.045	0.891 ± 0.019	0.923 ± 0.017
B4DTS2 and related entries (UniProt Q9BZL6)	1.087 ± 0.0089	1.04 ± 0.033	1.04 ± 0.053	0.974 ± 0.048	1.02 ± 0.027	0.988 ± 0.024
C9JZB0 and related entries (UniProt Q9BT40)	1.05 ± 0.076	1.02 ± 0.083	1.06 ± 0.061	1.06 ± 0.096	1.11 ± 0.026	1.12 ± 0.067
LIPT2 (UniProt A6NK58)	0.855 ± 0.03	0.938 ± 0.018	0.903 ± 0.092	0.878 ± 0.07	0.858 ± 0.085	0.891 ± 0.073
C9J2U0 and related entries (UniProt P24864)	1.03 ± 0.023	1 ± 0.025	1.03 ± 0.042	0.939 ± 0.028	1.18 ± 0.1	1.13 ± 0.089
B9ZVU2 and related entries (UniProt Q9ULA0)	1.02 ± 0.046	0.974 ± 0.034	0.939 ± 0.03	0.932 ± 0.0098	0.982 ± 0.023	0.949 ± 0.029
A0A0U1RQT7|A0A0U1RQY7|Q8IXA3 and related entries (UniProt Q9HCP0)	1.11 ± 0.14	1.06 ± 0.031	1.09 ± 0.04	1.13 ± 0.098	1.16 ± 0.1	1.1 ± 0.072
D3DSM0 and related entries (UniProt P05107)	0.9898 ± 0.0062	0.9833 ± 0.0092	0.978 ± 0.03	1 ± 0.0044	0.967 ± 0.038	0.946 ± 0.017
A8MUS3 and related entries (UniProt P62750)	0.937 ± 0.09	0.868 ± 0.073	0.829 ± 0.11	0.812 ± 0.095	0.7 ± 0.052	0.785 ± 0.11
B4E1Q4 and related entries (UniProt O14730)	0.996 ± 0.054	0.966 ± 0.068	0.952 ± 0.048	0.928 ± 0.064	0.889 ± 0.046	0.906 ± 0.086
B7WPL0 and related entries (UniProt Q9NVN3)	0.92 ± 0.063	0.971 ± 0.049	0.925 ± 0.052	0.937 ± 0.031	0.898 ± 0.016	0.916 ± 0.055

Reprinted at random: two records from the list.
Target	NP40-soluble protein abundance (concentration: 1mM)	NP40-soluble protein abundance (concentration: 2mM)	NP40-soluble protein abundance (concentration: 4mM)	NP40-soluble protein abundance (concentration: 6mM)	NP40-soluble protein abundance (concentration: 8mM)	NP40-soluble protein abundance (concentration: 10mM)
A6NF51 and related entries (UniProt O95861)	0.925 ± 0.043	0.948 ± 0.0097	0.9148 ± 0.0054	0.887 ± 0.045	0.891 ± 0.019	0.923 ± 0.017
ILVBL (UniProt A1L0T0)	0.944 ± 0.019	0.974 ± 0.044	0.948 ± 0.019	0.911 ± 0.074	0.96 ± 0.031	0.988 ± 0.045
